Drug screen on melanoma cell lines: apoptosis marker

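The test systems are human melanoma cell lines, treated with two drugs together for 72 h and then stained and imaged. Values are the share of nuclei positive for cleaved PARP as a percentage of the same share in the DMSO control: 100 is the control level, higher means more apoptosis. Concentrations were fixed for each drug; these are the higher of two levels. The file gives one value for each pair and line, without errors, so small differences may be noise. Basal and induced levels differ widely between cell lines.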
Only some of the drugs and lines screened are listed, without regard to their results.
A dash means that no value is listed here.

First drug in all entries: FK866, 0.05 µM, O=C(/C=C/c1cccnc1)NCCCCC1CCN(C(=O)c2ccccc2)CC1

Compounds and concentrations:
BMS-536924, 1 µM: Cc1cc(N2CCOCC2)cc2[nH]c(-c3c(NC[C@@H](O)c4cccc(Cl)c4)cc[nH]c3=O)nc12
vincristine, 0.0005 µM: CC[C@]1(O)C[C@H]2CN(CCc3c([nH]c4ccccc34)[C@@](C(=O)OC)(c3cc4c(cc3OC)N(C=O)[C@H]3[C@@](O)(C(=O)OC)[C@H](OC(C)=O)[C@]5(CC)C=CCN6CC[C@]43[C@@H]65)C2)C1
MK-2206, 2 µM: NC1(c2ccc(-c3nc4ccn5c(=O)[nH]nc5c4cc3-c3ccccc3)cc2)CCC1
ENMD-2076, 0.2 µM: Cc1cc(Nc2cc(N3CCN(C)CC3)nc(/C=C/c3ccccc3)n2)n[nH]1
vatalanib, 10 µM: Clc1ccc(Nc2nnc(Cc3ccncc3)c3ccccc23)cc1
GW441756, 2 µM: Cn1cc(/C=C2\C(=O)Nc3cccnc32)c2ccccc21
cisplatin, 8 µM: N.N.[Cl][Pt][Cl]
CP-690550, 5 µM: C[C@@H]1CCN(C(=O)CC#N)C[C@@H]1N(C)c1ncnc2[nH]ccc12
PLX4720, 0.4 µM: CCCS(=O)(=O)Nc1ccc(F)c(C(=O)c2c[nH]c3ncc(Cl)cc23)c1F
ZM336372, 10 µM: Cc1ccc(NC(=O)c2cccc(N(C)C)c2)cc1NC(=O)c1ccc(O)cc1
PF-562271, 0.4 µM: CN(c1ncccc1CNc1nc(Nc2ccc3c(c2)CC(=O)N3)ncc1C(F)(F)F)S(C)(=O)=O
AZD7762, 0.1 µM: NC(=O)Nc1cc(-c2cccc(F)c2)sc1C(=O)N[C@H]1CCCNC1
selumetinib, 0.075 µM: Cn1cnc2c(F)c(Nc3ccc(Br)cc3Cl)c(C(=O)NOCCO)cc21
GW0742, 10 µM: Cc1cc(SCc2sc(-c3ccc(C(F)(F)F)c(F)c3)nc2C)ccc1OCC(=O)O
XAV939, 10 µM: Oc1nc(-c2ccc(C(F)(F)F)cc2)nc2c1CSCC2
vismodegib, 5 µM: CS(=O)(=O)c1ccc(C(=O)Nc2ccc(Cl)c(-c3ccccn3)c2)c(Cl)c1
midostaurin, 0.4 µM: CO[C@@H]1[C@H](N(C)C(=O)c2ccccc2)C[C@H]2O[C@]1(C)n1c3ccccc3c3c4c(c5c6ccccc6n2c5c31)C(=O)NC4
JZL184, 5 µM: O=C(Oc1ccc([N+](=O)[O-])cc1)N1CCC(C(O)(c2ccc3c(c2)OCO3)c2ccc3c(c2)OCO3)CC1
dasatinib, 0.02 µM: Cc1nc(Nc2ncc(C(=O)Nc3c(C)cccc3Cl)s2)cc(N2CCN(CCO)CC2)n1
vorinostat, 0.4 µM: O=C(CCCCCCC(=O)Nc1ccccc1)NO
erlotinib, 4 µM: C#Cc1cccc(Nc2ncnc3cc(OCCOC)c(OCCOC)cc23)c1
PD173074, 0.5 µM: CCN(CC)CCCCNc1ncc2cc(-c3cc(OC)cc(OC)c3)c(NC(=O)NC(C)(C)C)nc2n1
KU-0063794, 0.1 µM: COc1ccc(-c2ccc3c(N4CCOCC4)nc(N4C[C@@H](C)O[C@@H](C)C4)nc3n2)cc1CO
crizotinib, 1 µM: C[C@@H](Oc1cc(-c2cnn(C3CCNCC3)c2)cnc1N)c1c(Cl)ccc(F)c1Cl
tozasertib, 0.03 µM: Cc1cc(Nc2cc(N3CCN(C)CC3)nc(Sc3ccc(NC(=O)C4CC4)cc3)n2)n[nH]1
OSU-03012, 5 µM: NCC(=O)Nc1ccc(-n2nc(C(F)(F)F)cc2-c2ccc3c(ccc4ccccc43)c2)cc1
LFM-A13, 10 µM: C/C(O)=C(\C#N)C(=O)Nc1cc(Br)ccc1Br
lapatinib, 4 µM: CS(=O)(=O)CCNCc1ccc(-c2ccc3ncnc(Nc4ccc(OCc5cccc(F)c5)c(Cl)c4)c3c2)o1
FH535, 5 µM: Cc1cc([N+](=O)[O-])ccc1NS(=O)(=O)c1cc(Cl)ccc1Cl
decitabine, 0.5 µM: Nc1ncn([C@H]2C[C@H](O)[C@@H](CO)O2)c(=O)n1
nutlin-3, 0.5 µM: COc1ccc(C2=N[C@@H](c3ccc(Cl)cc3)[C@@H](c3ccc(Cl)cc3)N2C(=O)N2CCNC(=O)C2)c(OC(C)C)c1
VX-702, 2 µM: NC(=O)c1ccc(N(C(N)=O)c2c(F)cccc2F)nc1-c1ccc(F)cc1F
BI-78D3, 1 µM: O=c1[nH]nc(Sc2ncc([N+](=O)[O-])s2)n1-c1ccc2c(c1)OCCO2
STA-4783, 0.03 µM: CN(NC(=O)CC(=O)NN(C)C(=S)c1ccccc1)C(=S)c1ccccc1
bexarotene, 10 µM: C=C(c1ccc(C(=O)O)cc1)c1cc2c(cc1C)C(C)(C)CCC2(C)C
SNS-032, 0.05 µM: CC(C)(C)c1cnc(CSc2cnc(NC(=O)C3CCNCC3)s2)o1

Second drug,A2058,COLO 800,WM3526,MEL-HO,501mel,LB2518-MEL,SK-MEL-2,G-361
OSU-03012,26.7,297,608,533,-,-,-,7880
vincristine,212,47.8,457,162,-,410,3780,6140
decitabine,214,516,78.8,396,-,1340,2790,13000
midostaurin,199,490,239,785,-,513,1720,8210
STA-4783,2860,1370,80.2,152,-,334,417,3710
MK-2206,93.8,153,227,104,-,305,761,6020
vorinostat,78.5,234,92.7,115,-,437,164,5500
BMS-536924,52.9,149,294,830,-,1420,3650,5640
JZL184,60.8,116,121,187,139,431,1120,7450
vismodegib,139,106,183,78.2,-,457,6240,8300
CP-690550,166,394,118,82.9,-,615,2460,9140
lapatinib,203,40.7,289,199,-,629,1980,8020
erlotinib,173,390,205,504,-,-,2110,1830
BI-78D3,124,83.9,84.9,152,-,223,2940,5640
PLX4720,140,194,165,109,-,349,3510,4340
PD173074,159,253,134,79.6,-,-,-,9110
LFM-A13,49.1,777,190,69.5,88.3,250,1310,12400
VX-702,111,1040,135,1640,-,270,2370,3840
SNS-032,95.1,381,130,140,-,506,2840,6770
crizotinib,112,80.6,264,283,-,585,3830,8000
GW0742,71.5,451,171,188,67.1,283,2180,6240
dasatinib,141,347,165,668,-,778,7810,7680
cisplatin,33.9,345,102,1060,-,683,3240,7630
FH535,114,191,69.4,182,81.2,420,702,6190
nutlin-3,43.3,223,222,171,-,2170,3940,4690
selumetinib,156,198,369,407,-,327,3720,3700
vatalanib,205,376,167,376,-,618,3020,5030
ENMD-2076,139,167,198,346,-,226,5030,7820
KU-0063794,117,347,141,83.5,101,487,906,5580
ZM336372,77.0,157,207,335,-,967,1400,6290
XAV939,150,454,47.7,119,36.1,68.4,408,3510
bexarotene,48.4,364,129,228,-,469,4220,6270
GW441756,63.8,47.3,71.0,596,56.5,296,1520,3130
AZD7762,154,713,1100,201,-,1180,4250,2430
tozasertib,161,366,147,179,-,226,3070,5470
PF-562271,126,185,151,237,-,570,3110,8100

The first 2 entries again:

Second drug	A2058	COLO 800	WM3526	MEL-HO	501mel	LB2518-MEL	SK-MEL-2	G-361
OSU-03012	26.7	297	608	533	-	-	-	7880
vincristine	212	47.8	457	162	-	410	3780	6140

Data from the primary screen of doi:10.1371/journal.pone.0140310, rounded.